Measured values from paper PMC3726778.
Results are given in words; binding and its absence hold for the method and conditions named.

Columns and labels:
[1] = molecular target: plakin domain of human envoplakin (residues 144–891) (human) (UniProt Q92817); assay: AUC; sedimentation velocity, c(s) analysis (SEDFIT); 100 mM NaCl, 20 mM sodium phosphate pH 7.4, 20°C; three concentrations between 0.05 and 4 mg/ml (0.5–35 µM); 25,000 and 40,000 rpm; both purified
[2] = molecular target: plakin domain of human periplakin (residues 131–871) (human) (UniProt O60437); assay: as above

B1: plakin domain of human envoplakin (residues 144–891) (domain or fragment, UniProt Q92817 144-891)
chain: PDVGPRVDWARVLEQKQKQVCAGQYGPGMAELEQQIAEHNILQKEIDAYGQQLRSLVGPDAATIRSQYRDLLKAASWRGQSLGSLYTHLQGCTRQLSALAEQQRRILQQDWSDLMADPAGVRREYEHFKQHELLSQEQSVNQLEDDGERMVELRHPAVGPIQAHQEALKMEWQNFLNLCICQETQLQHVEDYRRFQEEADSVSQTLAKLNSNLDAKYSPAPGGPPGAPTELLQQLEAEEKRLAVTERATGDLQRRSRDVAPLPQRRNPPQQPLHVDSICDWDSGEVQLLQGERYKLVDNTDPHAWVVQGPGGETKRAPAACFCIPAPDPDAVARASRLASELQALKQKLATVQSRLKASAVESLRPSQQAPSGSDLANPQAQKLLTQMTRLDGDLGQIERQVLAWARAPLSRPTPLEDLEGRIHSHEGTAQRLQSLGTEKETAQKECEAFLSTRPVGPAALQLPVALNSVKNKFSDVQVLCSLYGEKAKAALDLERQIQDADRVIRGFEATLVQEAPIPAEPGALQERVSELQRQRRELLEQQTCVLRLHRALKASEHACAALQNNFQEFCQDLPRQQRQVRALTDRYHAVGDQLDLREKVVQDAALTYQQFKNCKDNLSSWLEHLPRSQVRPSDGPSQIAYKLQAQKRLTQEIQSRERDRATASHLSQALQAALQDYELQADTYRCSLEPTLAVSAPKRPRVAPLQESIQAQEKNLAKAYTEVAAAQQQLLQQLEFARKMLEKKELS
For B1, which binding [1] is on record?
Its binding is “no binding (tested: 0.5–35 µM)”.

B2: plakin domain of human periplakin (residues 131–871) (domain or fragment, UniProt O60437 131-871)
chain: EVDPQVNWAALVEEKLDKLNNQSFGTDLPLVDHQVEEHNIFHNEVKAIGPHLAKDGDKEQNSELRAKYQKLLAASQARQQHLSSLQDYMQRCTNELYWLDQQAKGRMQYDWSDRNLDYPSRRRQYENFINRNLEAKEERINKLHSEGDQLLAAEHPGRNSIEAHMEAVHADWKEYLNLLICEESHLKYMEDYHQFHEDVKDAQELLRKVDSDLNQKYGPDFKDRYQIELLLRELDDQEKVLDKYEDVVQGLQKRGQQVVPLKYRRETPLKPIPVEALCDFEGEQGLISRGYSYTLQKNNGESWELMDSAGNKLIAPAVCFVIPPTDPEALALADSLGSQYRSVRQKAAGSKRTLQQRYEVLKTENPGDASDLQGRQLLAGLDKVASDLDRQEKAITGILRPPLEQGRAVQDSAERAKDLKNITNELLRIEPEKTRSTAEGEAFIQALPGSGTTPLLRTRVEDTNRKYEHLLQLLDLAQEKVDVANRLEKSLQQSWELLATHENHLNQDDTVPESSRVLDSKGQELAAMACELQAQKSLLGEVEQNLQAAKQCSSTLASRFQEHCPDLERQEAEVHKLGQRFNNLRQQVERRAQSLQSAKAAYEHFHRGHDHVLQFLVSIPSYEPQETDSLSQMETKLKNQKNLLDEIASREQEVQKICANSQQYQQAVKDYELEAEKLRSLLDLENGRRSHVSKRARLQSPATKVKEEEAALAAKFTEVYAINRQRLQNLEFALNLLRQQP
With B2 as the binder, how does the binding [2] read?
The binding was “no binding (tested: 0.5–35 µM)”.
